Results are given in words; binding and its absence hold for the method and conditions named. Some binding calls cover weakened binding; strength is not graded here. For part of these data: Sequences can lack the tags named with a protein.
B1: GST-IRF-1 (pDEST-15-codon optimized IRF-1) (protein, UniProt P10914 1-325)
chain: MPITRMRMRPWLEMQINSNQIPGLIWINKEEMIFQIPWKHAAKHGWDINKDACLFRSWAIHTGRYKAGEKEPDPKTWKANFRCAMNSLPDIEEVKDQSRNKGSSAVRVYRMLPPLTKNQRKERKSKSSRDAKSKAKRKSCGDSSPDTFSDGLSSSTLPDDHSSYTVPGYMQDLEVEQALTPALSPCAVSSTLPDWHIPVEVVPDSTSDLYNFQVSPMPSTSEATTDEDEEGKLPEDIMKLLEQSEWQPTNVDGKGYLLNEPGVQPTSVYGDFSCKEEPEIDSPGGDIGLSLQRVFTDLKNMDATWLDSLLTPVRLPSIQAIPCAP

Protein sequences, listed by entry. Tags and fused reporters are not part of them. Lines headed by an entry give the natural chain unless they say otherwise; changes in a name come on top.
UniProt Q9UNE7: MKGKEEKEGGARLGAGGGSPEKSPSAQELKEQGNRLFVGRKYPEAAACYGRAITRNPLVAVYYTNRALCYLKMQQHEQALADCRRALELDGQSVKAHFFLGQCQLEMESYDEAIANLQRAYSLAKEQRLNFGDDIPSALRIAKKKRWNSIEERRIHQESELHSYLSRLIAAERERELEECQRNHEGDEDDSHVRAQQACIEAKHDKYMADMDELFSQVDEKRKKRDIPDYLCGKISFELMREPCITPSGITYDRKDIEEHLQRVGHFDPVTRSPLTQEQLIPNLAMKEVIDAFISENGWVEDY

Tests used:
[1] = target: Carboxy-terminus of Hsc70-interacting protein (CHIP), His-tagged, wild type (human) (UniProt Q9UNE7); assay: ELISA; His-CHIP wt or K30A (100 ng) coated on microtitre wells; titration of GST-IRF-1 in the mobile phase; 25 mM HEPES pH 7.5, 50 mM KCl, 10 mM MgCl2, 5% glycerol, 0.1% Tween-20, 1 h at room temperature; both purified
[2] = target: Carboxy-terminus of Hsc70-interacting protein (CHIP), His-tagged, K30A mutant (human) (UniProt Q9UNE7); assay: as above
[3] = target: Carboxy-terminus of Hsc70-interacting protein (CHIP), His-tagged, wild type (human) (UniProt Q9UNE7); assay: ELISA; His-CHIP wt or K30A coated on microtitre wells; titration of biotin-tagged Hsp70 wt peptide in the mobile phase; detected using streptavidin-HRP; both purified

Row | Binder | binding [1] | binding [2] | binding [3]
1 | B1 | binds | binds | –
2 | SGSGGPTIEEVD (biotin at the N terminus) [Hsp70 C-terminal peptide GPTIEEVD (residues 634-641), biotin-SGSG at the N terminus] | – | – | binds

Reference: article PMC4638040
